Assay results reported in paper PMC6925130 (Scientific Reports, 2019).

Test: general procedure: Fmoc solid-phase peptide synthesis; HATU/DIPEA
Conditions: whole synthesis

In the case of HYNIC-L-P8RI, the “final HPLC purity” value (RP-HPLC, Kromasil C18) is reported as 96.8% and the isolated yield (overall) is reported as 55% overall yield.
